Experimental data: patent US20050238685A1, “Method of binding a compound to a surface” (priority 2002, published 2005)
Results are given in words; binding and its absence hold for the method and conditions named. Some binding calls cover weakened binding; strength is not graded here.

Key:
[1] = target: T1, SC3 hydrophobin of Schizophyllum commune (Schizophyllum commune) (UniProt P16933); assay: enzyme on SC3-coated TEFLON, rinsed; activity by spectrophotometry, constant after removal of the surface
T1 sequence (looked up): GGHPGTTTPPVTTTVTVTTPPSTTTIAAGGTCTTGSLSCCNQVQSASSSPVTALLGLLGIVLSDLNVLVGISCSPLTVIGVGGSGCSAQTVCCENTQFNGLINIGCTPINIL

[2] = target: T1, SC3 hydrophobin of Schizophyllum commune (Schizophyllum commune); assay: enzyme on hydrophobin-coated sheets, washed; chromogenic assay
[3] = target: T2, SC4 hydrophobin of Schizophyllum commune (Schizophyllum commune) (UniProt P16934); assay: as above
T2 sequence: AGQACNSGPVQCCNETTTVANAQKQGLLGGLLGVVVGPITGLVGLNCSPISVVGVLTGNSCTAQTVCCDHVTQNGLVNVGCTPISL

[4] = target: T1, SC3 hydrophobin of Schizophyllum commune (Schizophyllum commune); assay: enzyme on SC3-coated oil droplets, washed five times by centrifugation; substrate conversion

Measured: binding

B1: porcine liver esterase (enzyme, UniProt Q29550 19-566, looked up)
chain: GQPASPPVVDTAQGRVLGKYVSLEGLAQPVAVFLGVPFAKPPLGSLRFAPPQPAEPWSFVKNTTSYPPMCCQDPVVEQMTSDLFTNGKERLTLEFSEDCLYLNIYTPADLTKRGRLPVMVWIHGGGLVLGGAPMYDGVVLAAHENVVVVAIQYRLGIWGFFSTGDEHSRGNWGHLDQVAALHWVQENIANFGGDPGSVTIFGESAGGESVSVLVLSPLAKNLFHRAISESGVALTVALVRKDMKAAAKQIAVLAGCKTTTSAVFVHCLRQKSEDELLDLTLKMKFLTLDFHGDQRESHPFLPTVVDGVLLPKMPEEILAEKDFNTVPYIVGINKQEFGWLLPTMMGFPLSEGKLDQKTATSLLWKSYPIANIPEELTPVATDKYLGGTDDPVKKKDLFLDLMGDVVFGVPSVTVARQHRDAGAPTYMYEFQYRPSFSSDKKPKTVIGDHGDEIFSVFGFPLLKGDAPEEEVSLSKTVMKFWANFARSGNPNGEGLPHWPMYDQEEGYLQIGVNTQAAKRLKGEEVAFWNDLLSKEAAKKPPKIKHAEL
binds: all assays above
